Residues, ends and D or L forms follow the SMILES beside them.
Test: CD analysis of secondary structure
Assay type: physicochemical
Conditions: for α-Helix, percentage of secondary structure: 25 °C, CDNN; for α-helical content: range over SDS (5 ~ 40 mM) and 50% TFE buffer

Compound	α-Helix, percentage of secondary structure (5 mM SDS) [%]	α-Helix, percentage of secondary structure (20 mM SDS) [%]	α-Helix, percentage of secondary structure (40 mM SDS) [%]	α-Helix, percentage of secondary structure (50% TFE) [%]	α-Helix, percentage of secondary structure (H2O) [%]	α-helical content
CSCC[C@H](NC(=O)[C@H](CCCNC(=N)N)NC(=O)[C@H](Cc1c[nH]c2ccccc12)NC(=O)[C@H](C)NC(=O)[C@H](Cc1c[nH]c2ccccc12)NC(=O)[C@H](CCCNC(=N)N)NC(=O)[C@H](Cc1c[nH]c2ccccc12)NC(=O)[C@H](C)NC(=O)[C@H](CCCCN)NC(=O)[C@@H](N)Cc1ccccc1)C(=O)N[C@@H](CCCCN)C(=O)N[C@@H](CCCCN)C(=O)N[C@@H](CC(C)C)C(=O)N[C@@H](C)C(=O)N[C@@H](C)C(=O)N1CCC[C@H]1C(=O)N[C@@H](CO)C(=O)O [L7] (H-FKAWRWAWRMKKLAAPS-OH)	32.0	10.2	10.1	13.9	4.8	10.1 ~ 32.0%
CSCC[C@H](NC(=O)[C@H](CCCNC(=N)N)NC(=O)[C@H](Cc1c[nH]c2ccccc12)NC(=O)[C@H](C)NC(=O)[C@H](Cc1c[nH]c2ccccc12)NC(=O)[C@H](CCCNC(=N)N)NC(=O)[C@H](Cc1c[nH]c2ccccc12)NC(=O)[C@H](C)NC(=O)[C@H](CCCCN)NC(=O)[C@H](Cc1ccccc1)NC(=O)[C@H](CCCNC(=N)N)NC(=O)[C@H](CCCNC(=N)N)NC(=O)[C@H](CCCCN)NC(=O)[C@H](CCCNC(=N)N)NC(=O)[C@H](CCCCN)NC(=O)[C@H](Cc1ccccc1)NC(=O)[C@H](Cc1ccccc1)NC(=O)[C@H](CO)NC(=O)[C@H](C)NC(=O)[C@H](CCCNC(=N)N)NC(=O)[C@@H](NC(=O)[C@H](CCCCN)NC(=O)[C@H](Cc1c[nH]c2ccccc12)NC(=O)[C@H](CCCNC(=N)N)NC(=O)CNC(=O)[C@H](CCC(N)=O)NC(=O)[C@@H](NC(=O)[C@@H](N)CCCNC(=N)N)C(C)C)C(C)C)C(=O)N[C@@H](CCCCN)C(=O)N[C@@H](CCCCN)C(=O)N[C@@H](CC(C)C)C(=O)N[C@@H](C)C(=O)N[C@@H](C)C(=O)N1CCC[C@H]1C(=O)N[C@@H](CO)C(=O)O [R7] (H-RVQGRWKVRASFFKRKRRFKAWRWAWRMKKLAAPS-OH)	35.4	22.9	23.5	50.4	3.5	22.9 ~ 50.4%
